PubChem BioAssay AID1671195, Yale University | 2021

Purpose: 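Knockdowns that increase or decrease uptake of fluorescent LDL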 (primary screen)
Cells: human Huh7 hepatoma cells
Reagent: siRNA pool against human genes, 18 nM
Duration: about 2 to 2.5 days of knockdown, then 8 h LDL uptake
Conditions: DiI-labelled LDL at 30 µg/ml for 8 h, in lipoprotein-deficient serum medium
Detection: 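Fluorescent LDL signal imaged in cells, scaled to the plate median, robust z-score for each replicate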
Scale: robust z-score: higher = more LDL uptake after knockdown
Rule for the call: 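a gene counts as active if at least two replicate z-scores exceed ±2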
Shown is a random part of about 22,000 reagents. About 1,510 of all reagents (6.9%) were called active. 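Active includes knockdowns raising or lowering LDL uptake; positive z-scores mean more uptake, negative mean less.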

The opening 2 entries as a preview:
TSNAXIP1: robust z-score, replicate 1 = 2.1; robust z-score, replicate 2 = -0.728; robust z-score, replicate 3 = 1.39; activity call = inactive
SLC12A8: robust z-score, replicate 1 = 0.738; robust z-score, replicate 2 = 0.123; robust z-score, replicate 3 = 0.845; activity call = inactive

Main list, from the first entry:
TSNAXIP1: robust z-score, replicate 1 = 2.1; robust z-score, replicate 2 = -0.728; robust z-score, replicate 3 = 1.39; activity call = inactive
SLC12A8: robust z-score, replicate 1 = 0.738; robust z-score, replicate 2 = 0.123; robust z-score, replicate 3 = 0.845; activity call = inactive
TMCO2: robust z-score, replicate 1 = 0.837; robust z-score, replicate 2 = -0.843; robust z-score, replicate 3 = -0.507; activity call = inactive
WDR88: robust z-score, replicate 1 = 0.516; robust z-score, replicate 2 = -0.487; robust z-score, replicate 3 = 0.253; activity call = inactive
PCBP3: robust z-score, replicate 1 = -0.48; robust z-score, replicate 2 = -0.361; robust z-score, replicate 3 = 0.116; activity call = inactive
PTGR3: robust z-score, replicate 1 = -1.81; robust z-score, replicate 2 = -1.58; robust z-score, replicate 3 = -1.84; activity call = inactive
GFUS: robust z-score, replicate 1 = 0.751; robust z-score, replicate 2 = 0.842; robust z-score, replicate 3 = 1.18; activity call = inactive
STARD13: robust z-score, replicate 1 = -0.563; robust z-score, replicate 2 = -0.44; robust z-score, replicate 3 = -0.0237; activity call = inactive
GPATCH11: robust z-score, replicate 1 = -0.171; robust z-score, replicate 2 = -0.0916; robust z-score, replicate 3 = -0.311; activity call = inactive
LOC441076 (retired record): robust z-score, replicate 1 = -0.312; robust z-score, replicate 2 = -0.22; robust z-score, replicate 3 = -0.554; activity call = inactive
MYO1E: robust z-score, replicate 1 = -1.1; robust z-score, replicate 2 = -1.04; robust z-score, replicate 3 = -0.823; activity call = inactive
SIMC1: robust z-score, replicate 1 = -0.188; robust z-score, replicate 2 = 0.142; robust z-score, replicate 3 = 0.501; activity call = inactive
IL27: robust z-score, replicate 1 = -0.632; robust z-score, replicate 2 = -0.53; robust z-score, replicate 3 = -0.972; activity call = inactive
LOC389768: robust z-score, replicate 1 = -0.18; robust z-score, replicate 2 = 0.125; robust z-score, replicate 3 = -0.142; activity call = inactive
ANXA9: robust z-score, replicate 1 = 1.02; robust z-score, replicate 2 = -0.954; robust z-score, replicate 3 = -0.115; activity call = inactive
OBP2B: robust z-score, replicate 1 = -1.22; robust z-score, replicate 2 = -0.426; robust z-score, replicate 3 = -0.256; activity call = inactive
GPR158: robust z-score, replicate 1 = -2.2; robust z-score, replicate 2 = -1.6; robust z-score, replicate 3 = -0.403; activity call = inactive
ADAD2: robust z-score, replicate 1 = 1.02; robust z-score, replicate 2 = 0.0498; robust z-score, replicate 3 = -0.192; activity call = inactive
DRD5P2: robust z-score, replicate 1 = 0.142; robust z-score, replicate 2 = -1.1; robust z-score, replicate 3 = -0.026; activity call = inactive
L2HGDH: robust z-score, replicate 1 = -0.585; robust z-score, replicate 2 = -0.938; robust z-score, replicate 3 = -0.931; activity call = inactive
C18orf54: robust z-score, replicate 1 = 2.43; robust z-score, replicate 2 = 1.6; robust z-score, replicate 3 = 1.29; activity call = inactive
IRS1: robust z-score, replicate 1 = -0.375; robust z-score, replicate 2 = -1.73; robust z-score, replicate 3 = -0.782; activity call = inactive
CC2D2B: robust z-score, replicate 1 = -1.33; robust z-score, replicate 2 = -1.05; robust z-score, replicate 3 = -1.09; activity call = inactive
GJC3: robust z-score, replicate 1 = -0.0237; robust z-score, replicate 2 = 0.203; robust z-score, replicate 3 = 0.419; activity call = inactive
